Source: PubChem BioAssay AID1259308 (NCATS, 2017)
Shown is an unselected part of about 59,000 reagents tested. In the full data, about 1,510 (2.6%) are marked active. 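Calls use total luciferase alone and ignore viability, so some active siRNAs may act by altering cell number.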 Entries without a mark were called inactive. Reagents against one gene are numbered here. Not all columns of the deposit are shown.

Screen: 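Genes whose loss raises luciferase production in HEK293 cells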 (primary screen)
Cell system: human HEK293 embryonic kidney cells stably expressing firefly luciferase (HEK-CMV-Luc2-Hygro)
Reagents: single siRNA against human genes, 0.8 pmol siRNA per well
Time to read-out: 72 h
Measurement: 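Reporter luminescence and viable-cell signal on separate replicate plates, given as percent of non-targeting control and median/MAD z-scores, plus per-cell luciferase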
Reading the numbers: total luciferase, z-score and total luciferase, % of control: higher = more reporter protein produced
Call rule: 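An siRNA counts as active if its total luciferase robust z-score exceeds 3; genes with two or more such siRNAs out of three were retested with fresh siRNAs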
Calls: active = raised luciferase; inactive = no rise

After knock-down of TIMM44 (translocase of inner mitochondrial membrane 44) #1, the record shows total luciferase, z-score -0.909; total luciferase, % of control 63.8.
With knock-down of TIMM44 (translocase of inner mitochondrial membrane 44) #2, the record shows total luciferase, z-score -1.48; total luciferase, % of control 52.5.
With knock-down of TIMM44 (translocase of inner mitochondrial membrane 44) #3, the screen gave total luciferase, z-score 0.49; total luciferase, % of control 91.6.
Silencing of MTCP1 (mature T cell proliferation 1) #1 resulted in: total luciferase, z-score -0.563; total luciferase, % of control 70.7.
Silencing of MTCP1 (mature T cell proliferation 1) #2 gave: total luciferase, z-score 1.02; total luciferase, % of control 102.
After knock-down of MTCP1 (mature T cell proliferation 1) #3, the screen gave total luciferase, z-score 1.26; total luciferase, % of control 107.
Against C19orf81 (chromosome 19 open reading frame 81) #1, the values are total luciferase, z-score 1.36; total luciferase, % of control 109.
Knock-down of C19orf81 (chromosome 19 open reading frame 81) #2 gave: total luciferase, z-score 1.43; total luciferase, % of control 110.
C19orf81 (chromosome 19 open reading frame 81) #3 showed total luciferase, z-score -0.429; total luciferase, % of control 73.4.
FAM133B (family with sequence similarity 133 member B) #1 gave total luciferase, z-score -0.764; total luciferase, % of control 66.7.
FAM133B (family with sequence similarity 133 member B) #2 scored total luciferase, z-score 0.431; total luciferase, % of control 90.5.
Knock-down of FAM133B (family with sequence similarity 133 member B) #3 came out at: total luciferase, z-score 0.198; total luciferase, % of control 85.8.

Reformatted: entries from further up.
TIMM44 (translocase of inner mitochondrial membrane 44) #3
- total luciferase, z-score: 0.49
- total luciferase, % of control: 91.6

MTCP1 (mature T cell proliferation 1) #1
- total luciferase, z-score: -0.563
- total luciferase, % of control: 70.7

MTCP1 (mature T cell proliferation 1) #2
- total luciferase, z-score: 1.02
- total luciferase, % of control: 102

MTCP1 (mature T cell proliferation 1) #3
- total luciferase, z-score: 1.26
- total luciferase, % of control: 107

The listing continues:
L3MBTL2 (L3MBTL histone methyl-lysine binding protein 2) #1 showed total luciferase, z-score 1.52; total luciferase, % of control 112.
Depletion of L3MBTL2 (L3MBTL histone methyl-lysine binding protein 2) #2 resulted in: total luciferase, z-score 1.47; total luciferase, % of control 111.
L3MBTL2 (L3MBTL histone methyl-lysine binding protein 2) #3 gave total luciferase, z-score 1.79; total luciferase, % of control 118.
For TSLIG3C (tRNA splicing ligase complex subunit 3C) #1, the entry reads total luciferase, z-score -1.25; total luciferase, % of control 57.1.
For TSLIG3C (tRNA splicing ligase complex subunit 3C) #2 the deposit lists total luciferase, z-score 1.55; total luciferase, % of control 113.
For TSLIG3C (tRNA splicing ligase complex subunit 3C) #3 the deposit lists total luciferase, z-score 1.22; total luciferase, % of control 106.
TENT4A (terminal nucleotidyltransferase 4A) #1 scored total luciferase, z-score -0.666; total luciferase, % of control 68.6.
For TENT4A (terminal nucleotidyltransferase 4A) #2, the values are total luciferase, z-score -0.673; total luciferase, % of control 68.5.
Depletion of TENT4A (terminal nucleotidyltransferase 4A) #3 gave: total luciferase, z-score -0.46; total luciferase, % of control 72.7.
For EFCAB6 (EF-hand calcium binding domain 6) #1, the values are total luciferase, z-score 0.167; total luciferase, % of control 85.2.
Against EFCAB6 (EF-hand calcium binding domain 6) #2, the values are total luciferase, z-score 0.0202; total luciferase, % of control 82.3.
EFCAB6 (EF-hand calcium binding domain 6) #3 scored total luciferase, z-score -1.79; total luciferase, % of control 46.3.
With knock-down of MAST3 (microtubule associated serine/threonine kinase 3) #1, the screen gave total luciferase, z-score 1.86; total luciferase, % of control 119.
For MAST3 (microtubule associated serine/threonine kinase 3) #2 the deposit lists total luciferase, z-score -2.01; total luciferase, % of control 42.
After knock-down of MAST3 (microtubule associated serine/threonine kinase 3) #3, the record shows total luciferase, z-score -0.271; total luciferase, % of control 76.5.
TSGA10 (testis specific 10) #1 scored total luciferase, z-score -0.147; total luciferase, % of control 79.
With knock-down of TSGA10 (testis specific 10) #2, the screen gave total luciferase, z-score -0.718; total luciferase, % of control 67.6.
Against TSGA10 (testis specific 10) #3, the values are total luciferase, z-score -0.902; total luciferase, % of control 63.9.
MCTP2 (multiple C2 and transmembrane domain containing 2) #1 gave total luciferase, z-score 0.337; total luciferase, % of control 88.6.
Against MCTP2 (multiple C2 and transmembrane domain containing 2) #2, the values are total luciferase, z-score -0.225; total luciferase, % of control 77.4.
After knock-down of MCTP2 (multiple C2 and transmembrane domain containing 2) #3, the record shows total luciferase, z-score 0.475; total luciferase, % of control 91.3.
